Laboratory results as given in PMC8079706.
Results are given in words; binding and its absence hold for the method and conditions named. In cells and extracts the contact can be indirect. Some results given as binding are weak or reduced against the parent protein; the word gives no strength.

Amino acid sequences for entries named in this document (tags omitted). A change or cut given only in a name is not applied to a line headed by its entry. Chains listed by the source or under a name are the forms on record and can include a tag or linker. Residues count along the entry.
UniProt Q14191: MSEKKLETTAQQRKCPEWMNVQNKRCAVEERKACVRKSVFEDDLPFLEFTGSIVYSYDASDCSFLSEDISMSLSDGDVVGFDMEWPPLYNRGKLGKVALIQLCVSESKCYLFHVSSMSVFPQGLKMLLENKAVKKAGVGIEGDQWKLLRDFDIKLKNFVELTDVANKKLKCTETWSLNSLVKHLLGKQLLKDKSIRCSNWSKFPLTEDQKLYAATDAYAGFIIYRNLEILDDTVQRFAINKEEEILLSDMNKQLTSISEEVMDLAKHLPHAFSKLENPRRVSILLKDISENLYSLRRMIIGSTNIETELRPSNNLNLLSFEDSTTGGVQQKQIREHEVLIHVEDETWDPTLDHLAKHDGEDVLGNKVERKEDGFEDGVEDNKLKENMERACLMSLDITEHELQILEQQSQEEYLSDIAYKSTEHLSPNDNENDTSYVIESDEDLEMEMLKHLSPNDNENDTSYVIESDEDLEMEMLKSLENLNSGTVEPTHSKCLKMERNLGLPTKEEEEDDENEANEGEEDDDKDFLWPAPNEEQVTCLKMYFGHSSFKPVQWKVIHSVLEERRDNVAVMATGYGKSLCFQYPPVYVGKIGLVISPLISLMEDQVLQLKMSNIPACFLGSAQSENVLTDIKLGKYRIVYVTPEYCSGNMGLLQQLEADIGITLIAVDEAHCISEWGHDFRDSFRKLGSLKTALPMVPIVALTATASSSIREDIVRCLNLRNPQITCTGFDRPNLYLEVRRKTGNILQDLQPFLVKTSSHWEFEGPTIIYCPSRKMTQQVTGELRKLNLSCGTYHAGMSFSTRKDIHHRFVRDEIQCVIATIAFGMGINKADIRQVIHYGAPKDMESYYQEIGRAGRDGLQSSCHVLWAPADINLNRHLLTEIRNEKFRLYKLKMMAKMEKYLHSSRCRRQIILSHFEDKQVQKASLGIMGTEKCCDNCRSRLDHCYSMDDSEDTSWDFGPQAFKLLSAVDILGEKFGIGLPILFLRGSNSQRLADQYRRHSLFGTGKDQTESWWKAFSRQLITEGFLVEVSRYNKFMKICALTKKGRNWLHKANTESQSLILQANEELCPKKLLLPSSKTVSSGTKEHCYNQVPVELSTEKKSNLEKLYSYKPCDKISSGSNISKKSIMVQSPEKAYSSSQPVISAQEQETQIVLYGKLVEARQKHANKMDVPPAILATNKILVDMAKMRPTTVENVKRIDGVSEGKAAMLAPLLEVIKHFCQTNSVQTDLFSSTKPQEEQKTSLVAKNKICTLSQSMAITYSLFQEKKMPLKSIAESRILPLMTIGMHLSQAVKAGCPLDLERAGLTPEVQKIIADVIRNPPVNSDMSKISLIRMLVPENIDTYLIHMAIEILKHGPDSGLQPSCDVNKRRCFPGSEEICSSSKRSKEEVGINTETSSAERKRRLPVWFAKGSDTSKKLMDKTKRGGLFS
GST-tagged WRN-R2 recombinant protein: residues 424-476 of Q14191
wild-type lamin A (endogenous) (P02545, residues 1-646): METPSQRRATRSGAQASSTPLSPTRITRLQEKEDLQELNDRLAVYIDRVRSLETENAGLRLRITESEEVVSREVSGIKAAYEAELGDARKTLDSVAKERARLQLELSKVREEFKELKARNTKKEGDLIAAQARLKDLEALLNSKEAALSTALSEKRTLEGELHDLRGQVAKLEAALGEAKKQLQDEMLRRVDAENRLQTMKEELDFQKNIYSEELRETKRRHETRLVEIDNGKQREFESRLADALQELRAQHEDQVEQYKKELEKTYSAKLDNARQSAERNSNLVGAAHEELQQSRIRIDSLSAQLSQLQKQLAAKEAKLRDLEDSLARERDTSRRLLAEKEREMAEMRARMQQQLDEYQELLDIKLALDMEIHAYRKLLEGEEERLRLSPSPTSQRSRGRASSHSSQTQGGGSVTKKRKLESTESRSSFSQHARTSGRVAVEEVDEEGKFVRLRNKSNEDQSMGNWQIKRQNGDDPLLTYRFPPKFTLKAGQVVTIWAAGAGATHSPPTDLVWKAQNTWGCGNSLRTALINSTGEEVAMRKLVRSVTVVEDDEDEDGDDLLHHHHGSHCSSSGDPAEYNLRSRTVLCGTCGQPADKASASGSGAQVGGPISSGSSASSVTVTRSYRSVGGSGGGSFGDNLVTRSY
progerin (endogenous) (P02545-6, form named): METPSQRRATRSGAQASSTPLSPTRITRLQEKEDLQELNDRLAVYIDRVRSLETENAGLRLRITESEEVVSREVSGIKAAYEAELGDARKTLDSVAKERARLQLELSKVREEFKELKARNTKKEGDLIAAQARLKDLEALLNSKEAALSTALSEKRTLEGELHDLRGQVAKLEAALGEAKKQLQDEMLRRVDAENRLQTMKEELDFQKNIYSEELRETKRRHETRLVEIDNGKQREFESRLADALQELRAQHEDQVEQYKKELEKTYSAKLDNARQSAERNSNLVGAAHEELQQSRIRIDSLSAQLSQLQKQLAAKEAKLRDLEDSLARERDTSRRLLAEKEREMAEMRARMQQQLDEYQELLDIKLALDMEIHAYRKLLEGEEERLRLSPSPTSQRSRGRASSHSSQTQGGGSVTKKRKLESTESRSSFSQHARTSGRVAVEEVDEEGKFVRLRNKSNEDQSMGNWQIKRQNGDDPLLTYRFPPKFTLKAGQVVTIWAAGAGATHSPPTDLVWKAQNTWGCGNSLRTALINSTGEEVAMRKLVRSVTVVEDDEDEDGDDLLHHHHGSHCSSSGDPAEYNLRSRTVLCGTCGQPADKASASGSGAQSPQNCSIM

What was measured:
[1] = target: GST-tagged WRN-R2 recombinant protein (human) (UniProt Q14191); experiment: pull-down; bead-conjugated GST-WRN-R1 or GST-WRN-R2 incubated with GFP-lamin A- or GFP-progerin-transfected HEK293 cell lysate for 1 h at room temperature, washed once with PBS; western blot with anti-GFP and anti-GST; only the target purified
[2] = target: WRN protein (endogenous) (human (endogenous in whole-cell lysates; all cell lines of the paper are human)) (UniProt Q14191); experiment: co-IP; endogenous IP: whole-cell lysates with anti-WRN antibody at 4 °C for 2 h, protein A/G agarose beads at 4 °C for 1 h, washed with RIPA buffer, western blot

binding [1]	binding [2]	Substance
binds		GFP-fused progerin (from UniProt P02545-6 1-614)
	binds	progerin (endogenous) (from UniProt P02545-6 1-614)
	binds	wild-type lamin A (endogenous) (from UniProt P02545 1-646)
